In patent US12016958B2, “Method for delivering an agent to posterior segment of an eye and uses thereof” (NANO TARGETING & THERAPY BIOPHARMA INC., priority 2021, dated 2024):
At least one compound was matched to its structure with a doubt left.

Test system: choroidal neovascularization (CNV)
Assay: Laser-induced mouse model of wet-AMD syndrome, fluorescein angiography
Assay type: in vivo
Settings: intravitreal injection once a week, start 3 days after laser induction

With `CNC(=O)c1ccccc1Sc1ccc2c(/C=C/c3ccccn3)n[nH]c2c1` [AXT, Axitinib] the “Area of dye leakage from CNV lesions” value was “obviously decreased compared to the control group”.
